Some of the results follow.
Target: OsWRKY34 (Oryza sativa, UniProt Q0JBA9 1-250)
Assay: protein-binding microarray (RPBM); PBS, 2% BSA, 51.3 ng/ul salmon testes DNA, 50 uM zinc acetate, 200 nM TF, 25 C, 1 h; high values mean tight binding
Details: protein: recombinant; tags: N-terminal polyhistidine and DsRed monomer fusion (pET32a); label: CyDye5-dUTP incorporated in the synthesized complementary strand; 3' TTTTT single-stranded linker to array surface; dsDNA, one strand shown
In short: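 Polyhistidine-tagged DsRed fusions of transcription factors, joined at the N-terminus, were expressed in E. coli BL21-CodonPlus and isolated on Ni–NTA. They were incubated at 200 nM for 1 h at 25 °C on a custom Agilent array, double-stranded and BSA-blocked, in PBS with 2% BSA, salmon testes DNA and 50 µM zinc acetate. The binding signal is per-feature fluorescence intensity (arbitrary units) read on an Axon 4000B scanner after washing.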

Protein sequences, listed by entry. Tags and fused reporters are not part of them.
UniProt Q0JBA9, entry or part of it: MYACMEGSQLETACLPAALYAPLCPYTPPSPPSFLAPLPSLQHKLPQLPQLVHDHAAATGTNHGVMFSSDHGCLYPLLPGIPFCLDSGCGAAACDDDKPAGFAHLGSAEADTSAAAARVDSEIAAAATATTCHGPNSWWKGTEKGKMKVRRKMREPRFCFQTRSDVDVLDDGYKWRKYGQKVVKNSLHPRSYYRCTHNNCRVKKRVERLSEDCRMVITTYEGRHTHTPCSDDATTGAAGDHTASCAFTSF

Row | Sequence | binding signal
1 | ATTTTTGATCCCGTTGACGCTCTAGTATGTTTCTTCTCGTCGGAGTCACCTAGTGCAG | 10200 fluorescence intensity (a.u.)
2 | CTTTAATAGTATAGCCAACTACTACCTCGGAATCACCTATCGGAGTCACCTAGTGCAG | 20300 fluorescence intensity (a.u.)
3 | ACTCTCTCTCTCTCTCTGCTTCTTCTTGTGTTGTGCTTGTCGGAGTCACCTAGTGCAG | 9800 fluorescence intensity (a.u.)
4 | ATGGTTCGTCTTGTTCGTATATTTTTTTTATGGTGCATATCGGAGTCACCTAGTGCAG | 11700 fluorescence intensity (a.u.)
5 | CAAATGTTCCAATGACTTGGATTCTTTTTCATAATTATGTCGGAGTCACCTAGTGCAG | 8380 fluorescence intensity (a.u.)
6 | GCCACATTACGCTGATCTTTCAGATTCCCTTTTCGTCAGACGGAGTCACCTAGTGCAG | 9530 fluorescence intensity (a.u.)
7 | ATTGGGCTCATTTCATCCCTTCCAAATTCTACCTCCCAAACGGAGTCACCTAGTGCAG | 8700 fluorescence intensity (a.u.)
8 | TCTGAAGCGGTGTGTGTTTTCCCAAGTAGCAACCAACCTGCGGAGTCACCTAGTGCAG | 8580 fluorescence intensity (a.u.)
9 | ATTTGCATGCCGTCTTATGCACGCATTCTACTAATACCTCCGGAGTCACCTAGTGCAG | 8770 fluorescence intensity (a.u.)
10 | GGCAGATTTTTTTTATTCGGTACGAGGTTGTTTCTTAATACGGAGTCACCTAGTGCAG | 10900 fluorescence intensity (a.u.)
11 | ACAAAGATTGCATAAACCTGCATGATTCCTACTTTGTTTTCGGAGTCACCTAGTGCAG | 8700 fluorescence intensity (a.u.)
12 | TTTACCCTAGTCGATCTCCCCGTCGCTTCGGTCTCGACTCCGGAGTCACCTAGTGCAG | 10200 fluorescence intensity (a.u.)
13 | AAGCTCCGATCCACAGCGCACCTCGAGCCCTACCTCCGATCGGAGTCACCTAGTGCAG | 8940 fluorescence intensity (a.u.)
14 | GGCCGCACCGCTCCGCCTTCGTCTCCGCCACCCGCCACCCCGGAGTCACCTAGTGCAG | 9910 fluorescence intensity (a.u.)
15 | CCCTACGTGCCCTTAAATTGGACATCCTCTTTCACTTCACCGGAGTCACCTAGTGCAG | 11000 fluorescence intensity (a.u.)
16 | CATAAACAGATGCTAATTCTTGGTGGTCGGGGTGGGTCTCCGGAGTCACCTAGTGCAG | 13600 fluorescence intensity (a.u.)
17 | GTTGATGATGCCAATATCATTTTTGGTTGTGCTTTCATGGCGGAGTCACCTAGTGCAG | 8290 fluorescence intensity (a.u.)
18 | CAATCATTCAATCATCGCCGCCTTATCTTTCCCAATTCGACGGAGTCACCTAGTGCAG | 10100 fluorescence intensity (a.u.)
19 | ACTTTTTTTTTTGTCTGATCTGTTATTTTTATCCCTCTACCGGAGTCACCTAGTGCAG | 8950 fluorescence intensity (a.u.)
20 | TATATTTCTCTTGTGCATAGGGATGTTTAGTCTTTTACATCGGAGTCACCTAGTGCAG | 8430 fluorescence intensity (a.u.)
21 | GGTCCTACGTCGTACTGCCAGAGATTAAACAAGTTCCCTACGGAGTCACCTAGTGCAG | 8820 fluorescence intensity (a.u.)
22 | CTCCACCGCCGCATCTGTCGTCCGGCCGCGCATCCGTGCTCGGAGTCACCTAGTGCAG | 8600 fluorescence intensity (a.u.)
23 | CTGATAACTTCCATCCAGTCCGCTCGAGATAACCGGTTTTCGGAGTCACCTAGTGCAG | 10700 fluorescence intensity (a.u.)
24 | CACATATCGTTTAAATTTTCGACTTGACCGTTTTTCAATTCGGAGTCACCTAGTGCAG | 9550 fluorescence intensity (a.u.)
25 | TATCTATCTATATCTCTCGCTTCCACTAACCTCAGCTTCTCGGAGTCACCTAGTGCAG | 8990 fluorescence intensity (a.u.)
26 | AAATTAAATTTAAAAATTTAAATTTTGACTTTTTCTTGACCGGAGTCACCTAGTGCAG | 8250 fluorescence intensity (a.u.)
27 | CTCGTTCCAAAGTCTTTCGTTTGATCTATCAAAAGGCATCCGGAGTCACCTAGTGCAG | 8580 fluorescence intensity (a.u.)

Exported field by field: entries from further up
CTTTAATAGTATAGCCAACTACTACCTCGGAATCACCTATCGGAGTCACCTAGTGCAG
  binding signal = 20300 fluorescence intensity (a.u.)
ACTCTCTCTCTCTCTCTGCTTCTTCTTGTGTTGTGCTTGTCGGAGTCACCTAGTGCAG
  binding signal = 9800 fluorescence intensity (a.u.)

Next results follow:

Row | Sequence | binding signal
28 | GTAGTGATTATACTGCACTTGCATTTTAAAATTTTTCATCCGGAGTCACCTAGTGCAG | 8090 fluorescence intensity (a.u.)
29 | AAAATTAACTTCCCCATGCACACGCCATGCACAGTTTTAACGGAGTCACCTAGTGCAG | 8820 fluorescence intensity (a.u.)
30 | CACCATTGCCGTCGCCGCCGCCGCCGCCGCCCGTCGTGGCCGGAGTCACCTAGTGCAG | 9360 fluorescence intensity (a.u.)
31 | TTGTTGGTGTTTCCTCGTCCGCGTCGTCGGTTGCATTCTCCGGAGTCACCTAGTGCAG | 13600 fluorescence intensity (a.u.)
32 | ATTGGTTTTCATTTGTGTGTTTCAGTTCAGTTTTTCCTAGCGGAGTCACCTAGTGCAG | 10400 fluorescence intensity (a.u.)
33 | GTATCATCTTATACTAATATTATGTGGTCTTTGATAAAACCGGAGTCACCTAGTGCAG | 8560 fluorescence intensity (a.u.)
34 | GTGGCGGTTAACTCCTTCTTACCCGTTCTTTCTCACGCTTCGGAGTCACCTAGTGCAG | 10200 fluorescence intensity (a.u.)
35 | CCGCTGGCATCATCCCCGCTCGTCGCCGTCGTCGTGCTGCCGGAGTCACCTAGTGCAG | 8520 fluorescence intensity (a.u.)
36 | GCATTCTGTGAACTCCTGAATTATGTTTTGCTGTTGTGAACGGAGTCACCTAGTGCAG | 10100 fluorescence intensity (a.u.)
37 | GTTGTGTTTTTGTCAAAGTTCGTTCGCTTCAGCCTTCACGCGGAGTCACCTAGTGCAG | 8960 fluorescence intensity (a.u.)
38 | CTCACTCTCTCACTGTTTCGTTCTCTCTCTCCCATTCTGTCGGAGTCACCTAGTGCAG | 11800 fluorescence intensity (a.u.)
39 | CGAATCTTGATCTCTCTCTTTCATCGCCTCTTGTGTTCGCCGGAGTCACCTAGTGCAG | 8930 fluorescence intensity (a.u.)
40 | TTCCACGCCCAACTTTGATCGTCTGTCTTATTTAAAAATTCGGAGTCACCTAGTGCAG | 8500 fluorescence intensity (a.u.)
41 | CAATCACATATTTTGTTTGTAGATTTTGTTTATGTTATTTCGGAGTCACCTAGTGCAG | 8730 fluorescence intensity (a.u.)
42 | TCTAGTGCATGATTGTGTTATTATATTGTTCTCAACTATACGGAGTCACCTAGTGCAG | 8300 fluorescence intensity (a.u.)
43 | AGCTTCCGGACAAACCAGCCAATGCAAACTTCATTTGTACCGGAGTCACCTAGTGCAG | 8860 fluorescence intensity (a.u.)
44 | GCTGAGCTCCTACCCTCCAATGCCGTCCATCTCCATGTCCCGGAGTCACCTAGTGCAG | 9910 fluorescence intensity (a.u.)
45 | CATGCGTTAATAGTTTATCTCGTTTTACTTACCTTCTCAACGGAGTCACCTAGTGCAG | 9460 fluorescence intensity (a.u.)
46 | GCCGGCTTCTCCATTGTCTCGCCGATCCGGCCGGAAAAACCGGAGTCACCTAGTGCAG | 9480 fluorescence intensity (a.u.)
47 | TTAATCATGCGCTAATCAATTGTGCAGTTTTACGTACACTCGGAGTCACCTAGTGCAG | 8500 fluorescence intensity (a.u.)
48 | GGTTTTAGCATCAGTTGTTGTTGTTTCTGACCTGATCAGACGGAGTCACCTAGTGCAG | 9640 fluorescence intensity (a.u.)
49 | CCTAGGTAGTTCAATAGTAGTTATGTTTTCTGGCGGCGACCGGAGTCACCTAGTGCAG | 8580 fluorescence intensity (a.u.)
50 | AGAGGAGGGGATGAACAAGGGCAGTATGATCCAAGAAAAACGGAGTCACCTAGTGCAG | 8120 fluorescence intensity (a.u.)
51 | ACACTTTGACAGACAGTATCACTCGTATACAGACAACTTCCGGAGTCACCTAGTGCAG | 11000 fluorescence intensity (a.u.)
52 | TTCTTTTTTTTTTATCTCTATTGCCTGGACTCTTCAAGTGCGGAGTCACCTAGTGCAG | 9400 fluorescence intensity (a.u.)
53 | GTGTAACTTTTGGTTTTTATGCTTCCTGTAGGTCACAGTTCGGAGTCACCTAGTGCAG | 8530 fluorescence intensity (a.u.)
54 | CGTGGCTTATGTATTCTAGTGGATTTTGCTTCTAGCCTACCGGAGTCACCTAGTGCAG | 9180 fluorescence intensity (a.u.)

Fetched one by one from above (two):
Row | Sequence | binding signal
28 | GTAGTGATTATACTGCACTTGCATTTTAAAATTTTTCATCCGGAGTCACCTAGTGCAG | 8090 fluorescence intensity (a.u.)
39 | CGAATCTTGATCTCTCTCTTTCATCGCCTCTTGTGTTCGCCGGAGTCACCTAGTGCAG | 8930 fluorescence intensity (a.u.)

Source: paper PMC7819943, “Rice protein-binding microarrays: a tool to detect cis-acting elements near promoter regions in rice”
